Molecules are shown by their SMILES. Structures were worked out from names or drawings and are uncertain.

The chains behind the UniProt entries cited, without tags or fusion partners. Residues count along the entry.
UniProt P23945, 18-695 limits assumed: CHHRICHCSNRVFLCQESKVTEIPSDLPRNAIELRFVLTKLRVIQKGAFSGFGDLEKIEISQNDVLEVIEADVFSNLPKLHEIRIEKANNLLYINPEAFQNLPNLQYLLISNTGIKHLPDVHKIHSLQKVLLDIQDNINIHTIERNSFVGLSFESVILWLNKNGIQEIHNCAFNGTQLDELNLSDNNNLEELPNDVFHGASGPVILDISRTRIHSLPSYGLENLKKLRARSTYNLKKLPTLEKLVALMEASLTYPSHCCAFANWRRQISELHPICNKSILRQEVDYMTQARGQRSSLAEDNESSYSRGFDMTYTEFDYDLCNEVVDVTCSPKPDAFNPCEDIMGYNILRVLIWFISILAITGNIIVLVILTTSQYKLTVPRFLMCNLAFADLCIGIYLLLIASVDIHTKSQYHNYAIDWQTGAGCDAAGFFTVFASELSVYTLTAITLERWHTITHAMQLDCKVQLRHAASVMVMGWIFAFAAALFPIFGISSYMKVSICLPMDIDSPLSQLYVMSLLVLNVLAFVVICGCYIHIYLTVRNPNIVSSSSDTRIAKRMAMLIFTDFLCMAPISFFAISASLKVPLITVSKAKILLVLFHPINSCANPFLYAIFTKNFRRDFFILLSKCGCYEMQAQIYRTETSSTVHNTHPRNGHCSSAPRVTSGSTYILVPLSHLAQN

This test concerns the target FSHR (Homo sapiens, UniProt P23945). Nature of the test: EC50 of cyclic AMP production in CHO FSHR cells + EC20 FSH (HTRF). The note with it: Cho-FSHR-LUC-1-1-43 cells. How it is done:
EC50 of Cyclic AMP Production in CHO FSHR Cells+EC20 FSH
2500 Cho-FSHR-LUC-1-1-43 cells were plated per well in 5 μL of phenol red free DMEM/F12+1% FBS. Cells were plated in 384 well, solid white low volume plates (Greiner 784075) by Multidrop. Cells were assayed by adding […] of 2×EC20 FSH/IBMX in DMEM/F12+0.1% BSA) by Multidrop to 2 μL of test compound stamped in 384 well plates (compounds are diluted 1:50). The final FSH concentration was 0.265 pM, and the final IBMX concentration was 200 μM. The compound plate map was as follows: Column 1: 2 μL of DMSO; Column 2: 2 μL of DMSO; Columns 3-12 and 13-24: 2 μL of test compound, diluted 1:4 in 100% DMSO, or 2 μL of FSH, diluted 1:4 in DMEM/F12+0.1% BSA. The starting concentration for FSH was 50 nM (final concentration was 0.5 nM). Furthermore, Column 23 contained 2 μL of EC100 FSH reference (100×) (diluted in DMEM/F12+0.1% BSA) at a final concentration of 0.5 nM, and Column 24 contained 2 μL of 1 mM AS707664/2 reference compound 2. 5 μL of compound+EC20 FSH mixture were transferred to cell plates (1:2 dilution into 5 μL of cell media) The plates were incubated at 37° C. for 1 h. 10 μL of mixed HTRF (CisBio #62AM4PEC) reagents were added per well and incubated at room temperature for 1 h. The plates were read on Envision using the cAMP HTRF—low volume 384 well protocol. The readout was the calculated fluorescence ratio (665 nm/620 nm).
In general terms: In TR-FRET formats the signal depends on donor and acceptor labels being close together.

In the case of `[2H]c1c([2H])c([2H])c(C#Cc2c([2H])c([2H])c([C@@H]3S[C@H](CC(=O)NC([2H])([2H])C([2H])([2H])c4ccc(OC([2H])([2H])[2H])c(OCC)c4)C(=O)N3c3cccc(C(N)=O)c3)c([2H])c2[2H])c([2H])c1[2H]` (single isomer, unassigned), under “+ EC20 FSH, % effect in brackets”, the “EC50 of cAMP production (% effect)” value is “(101) %”. Further, the EC50 (as a rule, the concentration needed to bring the measured effect to its halfway point) (read-out: EC50 of cAMP production, + EC20 FSH (0.265 pM), 200 μM IBMX, 1 h at 37° C.) was determined as 0.7 nM.
